Measurements: PubChem BioAssay AID493014 (National Center for Advancing Translational Sciences (NCATS), 2011)
The whole screen tested about 340,000 compounds, of which about 170 (0.05%) were called active. The inconclusive results got no clear call from the source; some entries with a clear call stand among them for comparison. Calls follow the shape of the dose curve; as a rule, active = well fitted inhibition curve with a large enough effect in the signal ratio, with a control signal flat (not every such curve was filed as active); inconclusive = small, poorly fitted or top-dose-only effect, or effect the other way, or a change in a side signal; inactive = flat fitted curve, though single readings scatter; the % refers to the signal ratio. Where the call is inconclusive, the potency comes from a doubtful curve fit.

Assay: qHTS Assay to Find Inhibitors of Chronic Active B-Cell Receptor Signaling;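 as to activity change, negative = inhibition: plate controls were basal doxycycline-induced cells for no effect and cells given 10 µM MG132 for full effect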
Conditions: ABC-DLBCL IkBa-CBG/CBR reporter, luminescence ratio (green luciferase fused to IkBa over red control in TMD8 lymphoma cells), 4 h; activity change, negative = inhibition: at 46.1 µM (top of the series)
Summary of the method: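 Cell line TMD8 (human ABC DLBCL), stably expressing tet-inducible CBG68-IkBa fusion and CBR; IMDM/0.5% FBS; cpd up to 46 uM; dox induction, 4 h, 37C/5% CO2; dual luminescence; green/red ratio; MG132 control.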
Potency is read from the fitted curve at half-maximal effect.

Compound	activity change, negative = inhibition	Potency
Cc1ccc(S(=O)(=O)N2CCC(C(=O)NNC(=O)c3ccccc3O)CC2)cc1C	inactive: 7.75%	
CC(C)CN(C(=O)COC(=O)C12CC3CC(CC(C3)C1)C2)c1c(N)n(Cc2ccccc2)c(=O)[nH]c1=O	inconclusive: 5.31%	
NC(N)=Nc1nc(-c2ccccc2)c2cc(Cl)ccc2n1	inconclusive: 9.64%	
Nc1c(NCCCN2CCOCC2)c2ccccc2oc1=O		inconclusive: 5.8 µM [falling, full curve]
CCOc1ccc(CNc2ccc3c(c2)nc(C)n3C)cc1	inactive: 0.528%	
Cc1ccccc1NC(=O)CCC(=O)N/N=C/c1cc([N+](=O)[O-])ccc1O	inactive: -0.73%	
O=C(Nc1ccc(N2CCCC2)cc1)c1cc(Br)ccc1Cl		inconclusive: 11.2 µM [falling, partial curve, poor fit]
N#Cc1c2c(c(Nc3ccc(O)cc3)n3c1nc1ccccc13)CCC2	inconclusive: -1.56%	
O=[N+]([O-])c1ccc(N=Nc2c(O)[nH]c3ccc(F)cc23)cc1	inconclusive: 7.86%	
COc1ccc(N2CCN(CC(=O)c3c[nH]c4ccccc34)CC2)cc1		inconclusive: 22.4 µM [falling, partial curve, poor fit]
Cc1ccc(NC(=O)C2CCCN(S(=O)(=O)c3cccc4cccnc34)C2)c(Br)c1 (configuration not stated)	inactive: -9.1%	
CC1CCCN(C(=O)c2cccc(S(=O)(=O)Nc3cc(C(F)(F)F)ccc3Cl)c2)C1 (configuration not stated)	inconclusive: -3.69%	
Cc1ccccc1NC1=C/C(=N\S(=O)(=O)c2ccc(C(=O)O)cc2)c2ccccc2C1=O		inconclusive: 3.16 µM [falling, full curve, poor fit]
CCOP(=O)(OCC)c1nc(-c2ccc(OC)cc2)oc1N1CCOCC1	inconclusive: -1.82%	
CCCC1(C(=O)OCC)NC(c2cc(OC)c(OC)c(OC)c2)C2C(=O)N(CC)C(=O)C21 (configuration not stated)	inconclusive: 6.48%	
O=[N+]([O-])c1ccc(N/N=C\c2ccccc2OCc2ccccc2)cc1	inconclusive: 8.86%	
CC1CC(C)CN(CCCNC(=O)CCNC(=O)Cn2cnc3ccccc3c2=O)C1 (configuration not stated)	inconclusive: 0.361%	
Nc1ccccc1C(=O)NCc1ccc(Cl)cc1	inactive: 0.87%	
CSc1ccccc1NC(=O)COc1ccccc1C	inconclusive: -13.2%	
O=C1CCCCCN1Sc1ccccc1		inconclusive: 17.8 µM [falling, single point]
COc1cccc(C(=O)Nc2cccc(OCC(=O)O)c2)c1		inconclusive: 18.4 µM [falling, single point]
CCN1C(=O)NC2=C(C(=O)c3ccccc32)C1c1ccccc1F (configuration not stated)	inconclusive: -27.1%	

Looked up above:
Under activity change, negative = inhibition, O=[N+]([O-])c1ccc(N=Nc2c(O)[nH]c3ccc(F)cc23)cc1 has the entry inconclusive: 7.86%
Under Potency, Cc1ccccc1NC1=C/C(=N\S(=O)(=O)c2ccc(C(=O)O)cc2)c2ccccc2C1=O has the entry inconclusive: 3.16 µM [falling, full curve, poor fit]
